In article PMC5674077:
No constants are given. Whether binding was seen depends on the method and setting. In cells and extracts the contact can be indirect. Some entries that bind do so weakly or less than the wild type. For some of these results: Sequences can lack the tags named with a protein. One block for each substance: values may come before it.

Sequences of proteins named here, by UniProt entry; tags and fusion partners are left off.
UniProt Q04206: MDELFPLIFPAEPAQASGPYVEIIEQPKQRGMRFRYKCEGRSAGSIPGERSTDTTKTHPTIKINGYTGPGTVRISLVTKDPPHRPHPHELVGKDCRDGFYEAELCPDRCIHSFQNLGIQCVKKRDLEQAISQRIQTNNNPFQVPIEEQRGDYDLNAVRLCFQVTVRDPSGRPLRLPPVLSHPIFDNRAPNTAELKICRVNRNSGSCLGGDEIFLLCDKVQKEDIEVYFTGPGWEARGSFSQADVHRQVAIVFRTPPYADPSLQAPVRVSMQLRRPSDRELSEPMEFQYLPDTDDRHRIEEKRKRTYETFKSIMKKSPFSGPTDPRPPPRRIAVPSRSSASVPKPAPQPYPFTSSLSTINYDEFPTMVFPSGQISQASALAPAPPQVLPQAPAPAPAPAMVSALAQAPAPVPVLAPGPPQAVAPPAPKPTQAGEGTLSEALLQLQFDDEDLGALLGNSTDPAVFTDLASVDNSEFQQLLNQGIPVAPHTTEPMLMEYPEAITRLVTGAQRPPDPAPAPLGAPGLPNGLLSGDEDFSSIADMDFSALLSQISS
UniProt P19838: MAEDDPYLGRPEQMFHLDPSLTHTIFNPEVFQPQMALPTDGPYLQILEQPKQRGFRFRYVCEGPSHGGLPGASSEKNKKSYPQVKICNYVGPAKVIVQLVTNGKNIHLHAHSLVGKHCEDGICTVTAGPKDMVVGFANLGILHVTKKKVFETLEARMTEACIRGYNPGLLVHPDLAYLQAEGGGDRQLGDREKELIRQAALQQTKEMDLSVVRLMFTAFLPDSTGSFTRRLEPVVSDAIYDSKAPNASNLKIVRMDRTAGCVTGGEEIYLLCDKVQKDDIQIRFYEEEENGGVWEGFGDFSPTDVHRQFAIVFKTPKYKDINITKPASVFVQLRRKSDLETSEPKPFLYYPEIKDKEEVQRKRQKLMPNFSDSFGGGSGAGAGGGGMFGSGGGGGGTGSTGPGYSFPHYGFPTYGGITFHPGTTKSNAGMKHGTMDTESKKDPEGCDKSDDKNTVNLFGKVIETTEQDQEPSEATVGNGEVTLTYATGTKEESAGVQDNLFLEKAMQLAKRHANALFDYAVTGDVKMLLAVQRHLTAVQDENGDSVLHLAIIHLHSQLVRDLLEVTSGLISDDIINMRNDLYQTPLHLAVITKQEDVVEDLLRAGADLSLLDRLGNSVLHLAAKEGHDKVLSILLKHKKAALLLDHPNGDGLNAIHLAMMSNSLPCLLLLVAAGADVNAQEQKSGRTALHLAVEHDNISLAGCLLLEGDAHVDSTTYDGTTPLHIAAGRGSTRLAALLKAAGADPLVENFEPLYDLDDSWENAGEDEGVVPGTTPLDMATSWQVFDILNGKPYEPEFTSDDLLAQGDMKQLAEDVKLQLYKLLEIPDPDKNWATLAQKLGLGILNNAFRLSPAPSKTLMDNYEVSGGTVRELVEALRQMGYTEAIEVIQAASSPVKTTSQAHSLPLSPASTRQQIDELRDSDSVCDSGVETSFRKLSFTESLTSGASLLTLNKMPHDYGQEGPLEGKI

How the values were obtained:
[1] = target: T1, FLAG-NMI (human) (UniProt Q13287); experiment: co-IP; two-step co-IP; HEK293T co-transfected with HA-p65, FLAG-NMI and Myc-IκBα; first IP anti-FLAG, elution with FLAG peptide in lysis buffer with 250 mM NaCl, second IP anti-HA in lysis buffer with 300 mM NaCl; 4 °C
T1 sequence: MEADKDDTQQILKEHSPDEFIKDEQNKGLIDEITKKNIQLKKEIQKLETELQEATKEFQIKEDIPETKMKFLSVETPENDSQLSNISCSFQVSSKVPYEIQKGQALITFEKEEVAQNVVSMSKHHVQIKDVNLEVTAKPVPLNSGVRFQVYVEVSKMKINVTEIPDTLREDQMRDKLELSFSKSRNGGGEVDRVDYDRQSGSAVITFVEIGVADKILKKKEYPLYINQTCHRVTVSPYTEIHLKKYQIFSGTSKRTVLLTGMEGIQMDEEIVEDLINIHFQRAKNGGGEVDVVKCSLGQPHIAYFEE

[2] = target: T1, FLAG-NMI (human); experiment: co-IP; 293T cells transfected with Myc-p65 and FLAG-NMI, lysed 24 h after transfection; immunoprecipitated with anti-FLAG or anti-Myc Abs, immunoblotted with anti-Myc or anti-FLAG Abs
[3] = target: T2, Endogenous NMI (HeLa cells) (human (endogenous in HeLa)) (UniProt Q13287); experiment: co-IP; endogenous proteins; HeLa lysates immunoprecipitated with anti-NMI Ab, immunoblotted with anti-p65 Ab
T2 sequence: T1 sequence

[4] = target: T3, NMI (HA- or Myc-tagged, transfected HeLa cells, Fig. 4D-H) (human) (UniProt Q13287); experiment: co-IP; HeLa cells transfected with the indicated plasmids; immunoprecipitated with anti-Myc Ab, immunoblotted with anti-HA Ab
T3 sequence: T1 sequence

binding [1]: binds
Substance: HA-p65 (from UniProt Q04206 1-551)

binding [2]: binds
Substance: Myc-p65 (from UniProt Q04206 1-551)

binding [3]: binds
Substance: p65 (endogenous, HeLa cells) (from UniProt Q04206 1-551)

binding [4]: binds
Substance: p105/p50 (from UniProt P19838 1-968)
